# Data reported in paper PMC6989696.
# These are yes or no findings as the source states them, for the method shown. Binding seen in cells or lysates may run through a third protein. A yes stands for co-enrichment or nearness to the bait. Other partners may have been found. For some of these results: No binding means not detected with the bait.
# B1: FBXO3 (protein, UniProt D4ABP9 1-480)
# chain: MAAVEAETGLLTLESLPTDPLLLILSFVDYRDLINCCYVSRRLSQLSTHDPLWRRHCKKYWLITEEEKARKNQCWKSLFIATYSDVGRYINHYAAIKKAWDDLKKYLEPRCPRMVLSLKEGAREEDLDAVEAQIGCKLPDDYRCSYRIHNGQKLVVPGLLGSMALSNHYRSEDLLDVDTAAGGFQQRQGLKYCLPLTFCIHTGLSQYIAVEAAEGRNKNEVFYQCPDQMARNPAAIDMFIIGATFTDWFTSYVNNVVSGGFPIIRDQIFRYIHDPECVATTGDITVSVSTSFLPELSSVHPPHYFFTYRIRIEMSRDALPEKACQLDSRYWRITNAKGDVEEVQGPGVVGEFPIISPGRIYEYTSCTTFSTTSGYMEGYYTFHFLYFKDKVFNVAIPRFHMACPTFRVSIARLEMGPDEYEEMEEEAEEEEEEENDDSADMDESDESDEDENESDEGEGEERRRRVFDVPIRRRRCSRLF
# Columns and labels:
# [1] = biological target: FLAG-tagged Tau-RD-ΔK280 (human Tau Repeat Domain, Q244-E372) (human) (UniProt P10636); test: affinity purification with mass spectrometry; Tau-RD* late-stage aggregates and fibrils (selected at t4, followed to t24) on anti-FLAG beads, incubated with rat brain extract 1 h at 4 °C; compared with monomeric Tau-RD* without heparin (t0−); only the target purified
# [2] = biological target: FLAG-tagged Tau-RD-ΔK280 (human Tau Repeat Domain, Q244-E372) (human) (UniProt P10636); test: affinity purification with mass spectrometry; Tau-RD* monomers (37 µM) on anti-FLAG beads, incubated with rat brain extract 1 h at 4 °C; compared with empty FLAG beads; only the target purified
Molecule,binding [1],binding [2]
CTBP1 (from UniProt Q9Z2F5 1-430),no binding (only Tau-RD* as fibrils),binds
B1,no binding (only Tau-RD* as fibrils),binds
